Measured values published in patent US20040152766A1, “Composition comprising demethylcantharidin in combination with platinum-containing anticancer agents and use thereof” (priority 2003, published 2004).
Values joined by “and” are separate entries in the source; they are usually repeats but may differ in a detail not shown here. Equal entries are not always repeated. Where two headings read alike, the source gives them in different places. At least one read-out could not be matched to a standard name with certainty.

What was measured:
[1] = test system: Sensitive parental L1210 mouse leukaemia; type: cell-based
[2] = test system: Cisplatin-resistant L1210 mouse leukaemia

SMILES: O=C1OC(=O)C2C3CCC(O3)C12 (stereo not drawn) [DMC, Demethylcantharidin]
- IC50 ([1]; read-out: Dm (i.e. IC50), antilog of x-intercept of the median-effect plot, 72-hr exposure, fa = 50%): 12.8 µM
- IC50 ([1]; read-out: Dm (i.e. IC50), antilog of x-intercept of the median-effect plot, 72-hr exposure, fa = 50%, listed as Demethylcantharidin (DMC)): 13.6 µM and 11.1 µM and 11 µM and 15.5 µM
- IC50 [2]: 12 µM and 14.6 µM and 14 µM and 17.5 µM and 16.7 µM and 14.3 µM
